{"source": "patent US10996205B2", "about": "“Stress biomarkers and related non-invasive detection methods” (ARIZONA BOARD OF REGENTS ON BEHALF OF THE UNIVERSITY OF …, priority 2015, dated 2021)", "key": {"[1]": {"assay": "Cortisol levels in human eccrine sweat collected at different times of the day (HPLC-MS/MS)", "format": "in vivo"}, "[2]": {"conditions": "ELISA, sweat collected soon after intense exercise, 7:40 am to 22:00 pm; cited from earlier work"}}}
{"smiles": "C[C@]12CCC(=O)C=C1CC[C@@H]1[C@@H]2[C@@H](O)C[C@@]2(C)[C@H]1CC[C@]2(O)C(=O)CO", "note": "[cortisol, 4-PREGNEN-11β, 17, 21-TRIOL-3, 20-DIONE]", "values": [{"measurement": "Average Concentration in human eccrine sweat", "setting": "[1]; collection time 1-1:30 pm", "result": "1.68 ± 0.49", "unit": "ng/mL"}, {"measurement": "Average Concentration in human eccrine sweat", "setting": "[1]; collection time 4-4:30 pm", "result": "0.50 ± 0.20", "unit": "ng/mL"}, {"measurement": "average sweat cortisol", "setting": "[2]", "result": "74.62 ± 41.51", "unit": "ng/mL"}, {"measurement": "sweat cortisol concentration range", "setting": "[2]", "result": "8.16 to 141.7", "unit": "ng/mL"}]}
